# Assay results taken from patent publication US7317002B2 (Applied Research Systems ARS Holding N.V., priority 1997, dated 2008).
# Experiment: general procedure: Fmoc solid-phase peptide synthesis; PAL-PEG-PS; HBTU
# Conditions: whole synthesis, analytical HPLC, scale approx. 70 μmols
substance,measurement,value
"[N^α-isopropyl-Tyr^1,Lys(Alloc)^12]-hGRF(1-29)—NH2",final HPLC purity,>95%
